Patent US7855182B2, “Materials and methods for treatment of cancer” (The Institute of Cancer Research; Royal Cancer Hospital, priority 2004, dated 2010)
At least one compound was matched to its structure with a doubt left.

Test system: WT1
Test: WT1 expression in PC3M tumours grown as subcutaneous implants in treated mice
Type: in vivo, athymic nude mice
Conditions: mice treated with 15 mg/kg, preliminary
Description: The primer pair and probe for the quantification of WT1 were designed using the Primer Express program (Applied Biosystems) according to the recommended guidelines and as described above.: WT1—Forward primer, 5′-[…]-3′, reverse primer, 5′, […]-3′, and probe, 5′-[…]-3′. Each assay sample was analyzed in triplicate as above, and multiplexed to facilitate the measurement of gene expression levels relative to GAPDH (in vivo tumour samples) or 18 s ribosomal RNA expression (ribosomal RNA control reagents, Applied Biosystems) (in vitro cell line samples) using the standard curve method.
Previous gene profiling studies following treatment of K562 cells with WT1 directed ASOs, identified GPC5 as a putative WT1 target gene (manuscript in preparation). Downregulation of GPC5 expression following WT1 antisense treatment and correlating with reduced WT1 expression was confirmed in independent experiments (see FIG. 6). […] Direct transcriptional regulation of GPC5 by WT1 is likely since GPC5 has two WT1 consensus binding sites in its promoter region.

## CC(=O)O[C@@]12CO[C@@H]1C[C@H](O)[C@@]1(C)C(=O)[C@H](O)C3=C(C)[C@@H](OC(=O)[C@H](O)[C@@H](NC(=O)OC(C)(C)C)c4ccccc4)C[C@@](O)([C@@H](OC(=O)c4ccccc4)[C@H]21)C3(C)C [docetaxol, reference compound]
  increase in WT1 expression: nine
